Measured values: PubChem BioAssay AID504444 (National Center for Advancing Translational Sciences (NCATS), 2011)
Among all 360,000 compounds or so, about 7,500 (2.1%) were called active. The inconclusive results got no clear call from the source; some entries with a clear call stand among them for comparison. Calls follow the shape of the dose curve; as a rule, active = well fitted inhibition curve with a large enough effect; inconclusive = small, poorly fitted or top-dose-only effect, or effect the other way; inactive = flat fitted curve, though single readings scatter. Potencies of inconclusive entries are doubtful fits and often do not repeat.

Assay: Nrf2 qHTS screen for inhibitors; also: nearly all actives have a fitted effect of over 60% in size
Conditions: A549 ARE-Fluc reporter, luciferase luminescence, 18-24 h; series mostly up to 46 µM
In short: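 A549 ARE_Fluc cells (5000/well, 5% FBS OPTI-MEM) pre-incubated 2 h, then treated with compounds 18-24 h at 37C/5% CO2 in concentration-response. CellTiter-Fluor viability read first; BugLite luciferase luminescence after 15 min at room temperature gives Nrf2 activity.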
Potency is read from the fitted curve at half-maximal effect.

| Structure (SMILES) | Potency |
| --- | --- |
| CCOC(=O)c1c(C)[nH]c(C)c1S(=O)(=O)N(C)CC(=O)Nc1cccc(Cl)c1C | inconclusive: 10.3 µM [activator, partial curve] |
| Cc1ccc(-n2ncc(C(=O)NCc3ccc4c(c3)OCO4)c2C2CCN(C(=O)OC(C)(C)C)CC2)cc1C | active: 18.4 µM |
| CCOc1ccc(NC(=O)CC2Nc3cccc4cccc(c34)NC2=O)cc1 (centres undefined) | inactive |
| COc1cc(/C=C2\SC(=O)N(c3ccccc3Cl)C2=O)cc([N+](=O)[O-])c1O | inconclusive: 29.1 µM [falling, single point] |
| Cc1nn(-c2ccccc2)cc1/C=N/NS(=O)(=O)c1ccccc1 | inconclusive: 29.1 µM [activator, single point] |
| Cc1ccc(C)c(N/C(N)=N/c2nc(C)cc(C)n2)c1 | inactive |
| COc1ccc(C(=O)N2CCCCC2CCN2CCOCC2)cc1 (centres undefined) | inactive |
| Cn1c2ccccc2c(=O)c2cc(C#CC3=CCCCC3)ccc21 | inconclusive: 2.31 µM [activator, full curve] |
| CC1=C(c2ccc(C)c(C)c2)S(=O)(=O)N=C1N1CCN(c2cccc(C)c2)C(C)C1 (centres undefined) | inactive |
| O=C1C2C(c3ccccc3)CC=CC2C(c2ccoc2)N1Cc1ccccc1 (centres undefined) | inconclusive: 29.1 µM [falling, single point] |
| CC(=O)N1c2ccc(S(=O)(=O)NCC3CCC(C(=O)NC4CCC(C)CC4)CC3)cc2CC1C (centres undefined) | active: 16.4 µM |
| Cc1ccccc1Cn1c(=O)n(CC2CCC(C(=O)N3CCC(C)CC3)CC2)c(=O)c2sccc21 (centres undefined) | active: 23.1 µM |
| C=CCN(c1ccccc1)S(=O)(=O)c1ccc2c(c1)oc(=O)n2C | inconclusive: 0.731 µM [falling, full curve] |
| Cc1cc(C(=O)CSc2cccc[n+]2[O-])c(C)n1-c1ccccc1 | inconclusive: 7.31 µM [activator, partial curve] |
| CCC1CCCCN1C(=O)N[C@@H](Cc1ccccc1)C(=O)O (some centres undefined) | inconclusive: 6.51 µM [activator, single point] |
| Cc1ccc(OCCN2C(=O)C(=O)c3cc(C)ccc32)cc1 | inactive |
| COc1ccc(NC(=O)Cn2c(=O)n(Cc3nc(C)no3)c(=O)c3cc4c(cc32)OCO4)cc1 | inconclusive: 32.6 µM [falling, single point] |
| CCCC(=O)Nc1cccc(-c2nc3cc(C)c(C)cc3o2)c1 | inconclusive: 2.91 µM [activator, full curve] |
| Cc1cc(C)cc(NS(=O)(=O)c2ccc(-c3cc(C)no3)s2)c1 | inconclusive: 20.6 µM [falling, single point] |

Two entries from above in a different format.
Structure (SMILES)	Potency
Cn1c2ccccc2c(=O)c2cc(C#CC3=CCCCC3)ccc21	inconclusive: 2.31 µM [activator, full curve]
Cc1ccc(OCCN2C(=O)C(=O)c3cc(C)ccc32)cc1	inactive
